# Values from PubChem BioAssay AID686937 (Drosophila RNAi Screening Center, 2013)
# Screen: 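Genes in the fly needed for secretion of protein constitutively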 (primary screen)
# Cell system: Drosophila S2 cells expressing secreted horseradish peroxidase
# Reagents: long dsRNA against Drosophila genes
# Duration: about 5.5 days (5 days dsRNA, then 12 h reporter induction)
# Conditions: reporter expression induced after 5 days of dsRNA, read 12 h later; inducer not stated
# Measurement: 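After 5 days of dsRNA and 12 h of reporter induction, medium peroxidase read by chemiluminescence and scored as per-plate z-score; higher values mean more reporter released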
# Direction: z-score: higher = more reporter secreted into medium
# The screen tested about 23,000 reagents; shown is a random part of those that have a named target and a result. 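Reduced-secretion tags in replicate 1 do not always agree with the z-scores; no criterion for assigning the tags was given.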 Not given: the amount of reagent.
gene knocked down,DRSC id,"z-score, replicate 1","z-score, replicate 2","z-score, replicate 3","z-score, replicate 4","phenotype, replicate 1"
COX1 (retired record),DRSC21275,0.35,0.1,,,
Rab3-GEF (Rab3 GDP-GTP exchange factor),DRSC19954,0.27,0.41,,,
Rab3-GEF (Rab3 GDP-GTP exchange factor),DRSC19955,0.39,0.52,,,
Rab3-GEF (Rab3 GDP-GTP exchange factor),DRSC19956,0.37,-0.45,,,
Nnf1a,DRSC06394,0.21,0.12,,,
CG15153,DRSC02454,-0.22,0.05,,,
Hydr2 (alpha/beta hydrolase2),DRSC00607,0.37,0.51,,,
CG7332,DRSC20038,0.25,0.3,,,
CG30472,DRSC22245,-0.04,0.28,,,
CG9849,DRSC04573,0.54,0.36,,,
ninaG,DRSC16102,0.32,0.38,,,
Ser8,DRSC06891,0.29,0.23,,,
CG2111,DRSC18205,0.36,0.39,,,
CG5062,DRSC18385,0.27,0.65,,,
dare (defective in the avoidance of repellents),DRSC07602,0.28,0.26,,,
CG7550,DRSC10875,0.49,0.34,,,
Or94b (Odorant receptor 94b),DRSC16773,0.22,0.3,,,
CG17193,DRSC15187,0.43,0.24,,,
Nrk (Neurospecific receptor kinase),DRSC07480,0.31,0.17,,,
Ir7a (Ionotropic receptor 7a),DRSC17866,-0.16,0.03,,,
CG14659,DRSC12245,-0.01,0.28,,,
CG5921,DRSC17431,0.53,0.51,,,
CG5921,DRSC18390,0.23,0.26,,,
CG6873,DRSC20014,-0.73,0.19,,,
CR17024 (pseudo),DRSC02562,0.21,0.49,,,
Dnali1 (Dynein axonemal light intermediate chain 1),DRSC16158,0.26,0.49,,,
Diap1 (Death-associated inhibitor of apoptosis 1),DRSC11404,-6.36,-5.93,,,reduced secretion
CG4622,DRSC04479,-0.32,-0.04,,,
CG7878,DRSC16330,0.14,0.22,,,
uri (unconventional prefoldin RPB5 interactor),DRSC04111,-0.83,-0.63,,,
CG7409,DRSC10842,0.25,0.19,,,
CG15059,DRSC19633,0.43,0.35,,,
Pi3K59F (Phosphatidylinositol 3-kinase 59F),DRSC04640,0.14,0.25,,,
Taf8 (TBP-associated factor 8),DRSC20363,0.1,0.23,,,
CG14646,DRSC12232,0.09,0.16,0.08,0.12,
CG14646,DRSC21316,0.04,1,,,
CG8560,DRSC10994,0.44,0.45,,,
mxt (mextli),DRSC00551,0.6,0.35,,,
CG17717,DRSC18130,0.23,-0.18,,,
Ent2 (Equilibrative nucleoside transporter 2),DRSC02124,0.02,0.01,,,
dy (dusky),DRSC20325,0.35,0.17,,,
nAChRalpha3 (nicotinic Acetylcholine Receptor alpha3),DRSC18800,0.43,0.78,,,
SMSr (Sphingomyelin synthase related),DRSC10998,0.29,0.33,,,
SMSr (Sphingomyelin synthase related),DRSC10999,0.19,0.32,,,
CG5440,DRSC00685,0.02,-0.08,,,
CG30431,DRSC04902,0.34,0.15,,,
CG30431,DRSC04904,0.21,0.36,,,
"mAChR-A (muscarinic Acetylcholine Receptor, A-type)",DRSC04702,0.6,0.65,,,
CG7488,DRSC16250,0.37,0.08,,,
ninaC (neither inactivation nor afterpotential C),DRSC03579,0.35,0.28,,,
Drsl3 (Drosomycin-like 3),DRSC22630,0.02,-0.17,,,
dpr14 (defective proboscis extension response 14),DRSC17767,0.23,0.16,,,
mthl14 (methuselah-like 14),DRSC07865,0.4,0.25,,,
CG10005,DRSC14172,-0.03,-0.02,,,
betaTry (betaTrypsin),DRSC07582,0.42,0.35,0.39,-0.13,
betaTry (betaTrypsin),DRSC22377,0.15,0.51,,,

In a second layout: results already given
| gene knocked down | DRSC id | z-score, replicate 1 | z-score, replicate 2 | z-score, replicate 3 | z-score, replicate 4 | phenotype, replicate 1 |
| --- | --- | --- | --- | --- | --- | --- |
| Dnali1 (Dynein axonemal light intermediate chain 1) | DRSC16158 | 0.26 | 0.49 | – | – | – |
| Diap1 (Death-associated inhibitor of apoptosis 1) | DRSC11404 | -6.36 | -5.93 | – | – | reduced secretion |
| CG4622 | DRSC04479 | -0.32 | -0.04 | – | – | – |
